The other results are listed elsewhere or left out. The list holds hits alone, and they repeat only in part.

Sequences of proteins named here, by UniProt entry; tags and fusion partners are left off.
CKS2, P33552, UniProt P33552, whole entry: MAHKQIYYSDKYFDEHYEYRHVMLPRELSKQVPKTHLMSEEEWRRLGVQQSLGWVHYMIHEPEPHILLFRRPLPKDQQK
NDUFB7, P17568, UniProt P17568, whole entry: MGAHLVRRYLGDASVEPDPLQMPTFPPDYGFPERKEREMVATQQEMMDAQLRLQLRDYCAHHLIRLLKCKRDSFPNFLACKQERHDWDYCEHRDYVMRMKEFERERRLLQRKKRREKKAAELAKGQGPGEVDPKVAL
PDLIM7, Q9NR12, UniProt Q9NR12, whole entry: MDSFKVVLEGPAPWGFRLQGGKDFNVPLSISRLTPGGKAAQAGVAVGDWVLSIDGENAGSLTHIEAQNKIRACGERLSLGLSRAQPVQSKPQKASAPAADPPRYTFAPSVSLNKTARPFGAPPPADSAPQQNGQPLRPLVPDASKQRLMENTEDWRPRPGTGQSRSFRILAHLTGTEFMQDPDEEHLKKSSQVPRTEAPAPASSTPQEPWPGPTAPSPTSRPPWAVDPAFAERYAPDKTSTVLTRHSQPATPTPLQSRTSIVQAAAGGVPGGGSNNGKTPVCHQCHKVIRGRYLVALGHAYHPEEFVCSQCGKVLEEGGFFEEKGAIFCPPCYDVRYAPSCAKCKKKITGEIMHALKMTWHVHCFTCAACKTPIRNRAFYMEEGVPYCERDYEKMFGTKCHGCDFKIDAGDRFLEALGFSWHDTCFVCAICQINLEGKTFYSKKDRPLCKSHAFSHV
PLK1, P53350, UniProt P53350, whole entry: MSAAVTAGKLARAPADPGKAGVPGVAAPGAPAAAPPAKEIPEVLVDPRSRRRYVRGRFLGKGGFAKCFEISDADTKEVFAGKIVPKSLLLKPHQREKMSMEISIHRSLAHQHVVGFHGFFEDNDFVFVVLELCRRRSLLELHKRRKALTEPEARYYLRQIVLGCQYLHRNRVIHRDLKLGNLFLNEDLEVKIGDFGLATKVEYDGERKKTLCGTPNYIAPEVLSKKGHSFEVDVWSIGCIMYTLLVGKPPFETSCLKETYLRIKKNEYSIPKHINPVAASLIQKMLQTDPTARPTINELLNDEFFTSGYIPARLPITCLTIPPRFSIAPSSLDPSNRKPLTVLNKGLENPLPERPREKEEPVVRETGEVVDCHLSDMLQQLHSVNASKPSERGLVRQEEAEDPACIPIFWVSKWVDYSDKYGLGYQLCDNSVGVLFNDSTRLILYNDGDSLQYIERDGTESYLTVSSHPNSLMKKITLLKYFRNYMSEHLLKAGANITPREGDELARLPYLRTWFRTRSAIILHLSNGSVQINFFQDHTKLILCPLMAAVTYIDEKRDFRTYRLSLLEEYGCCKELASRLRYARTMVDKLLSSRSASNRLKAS
GSN, P06396, UniProt P06396, whole entry: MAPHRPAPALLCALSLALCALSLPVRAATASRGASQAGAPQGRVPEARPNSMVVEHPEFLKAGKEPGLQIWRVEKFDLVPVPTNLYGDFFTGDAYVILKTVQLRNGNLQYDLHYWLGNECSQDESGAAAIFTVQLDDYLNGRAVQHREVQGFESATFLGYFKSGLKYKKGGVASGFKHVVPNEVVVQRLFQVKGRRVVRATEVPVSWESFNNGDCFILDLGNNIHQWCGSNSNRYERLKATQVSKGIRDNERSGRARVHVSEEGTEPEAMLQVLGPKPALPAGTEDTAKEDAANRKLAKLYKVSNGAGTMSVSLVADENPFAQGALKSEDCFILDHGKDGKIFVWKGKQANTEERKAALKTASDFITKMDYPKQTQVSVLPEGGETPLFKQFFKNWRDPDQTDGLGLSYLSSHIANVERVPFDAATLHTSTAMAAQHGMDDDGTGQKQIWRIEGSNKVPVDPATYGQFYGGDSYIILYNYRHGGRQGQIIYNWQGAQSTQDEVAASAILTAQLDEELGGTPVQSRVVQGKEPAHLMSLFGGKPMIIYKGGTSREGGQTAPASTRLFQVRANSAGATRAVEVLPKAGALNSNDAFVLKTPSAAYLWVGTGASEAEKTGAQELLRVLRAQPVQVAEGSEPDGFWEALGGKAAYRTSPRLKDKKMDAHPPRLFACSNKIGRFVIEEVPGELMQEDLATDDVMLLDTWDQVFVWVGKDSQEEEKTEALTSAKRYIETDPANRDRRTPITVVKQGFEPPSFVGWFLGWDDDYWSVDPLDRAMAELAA
MED12, Q93074, UniProt Q93074, whole entry: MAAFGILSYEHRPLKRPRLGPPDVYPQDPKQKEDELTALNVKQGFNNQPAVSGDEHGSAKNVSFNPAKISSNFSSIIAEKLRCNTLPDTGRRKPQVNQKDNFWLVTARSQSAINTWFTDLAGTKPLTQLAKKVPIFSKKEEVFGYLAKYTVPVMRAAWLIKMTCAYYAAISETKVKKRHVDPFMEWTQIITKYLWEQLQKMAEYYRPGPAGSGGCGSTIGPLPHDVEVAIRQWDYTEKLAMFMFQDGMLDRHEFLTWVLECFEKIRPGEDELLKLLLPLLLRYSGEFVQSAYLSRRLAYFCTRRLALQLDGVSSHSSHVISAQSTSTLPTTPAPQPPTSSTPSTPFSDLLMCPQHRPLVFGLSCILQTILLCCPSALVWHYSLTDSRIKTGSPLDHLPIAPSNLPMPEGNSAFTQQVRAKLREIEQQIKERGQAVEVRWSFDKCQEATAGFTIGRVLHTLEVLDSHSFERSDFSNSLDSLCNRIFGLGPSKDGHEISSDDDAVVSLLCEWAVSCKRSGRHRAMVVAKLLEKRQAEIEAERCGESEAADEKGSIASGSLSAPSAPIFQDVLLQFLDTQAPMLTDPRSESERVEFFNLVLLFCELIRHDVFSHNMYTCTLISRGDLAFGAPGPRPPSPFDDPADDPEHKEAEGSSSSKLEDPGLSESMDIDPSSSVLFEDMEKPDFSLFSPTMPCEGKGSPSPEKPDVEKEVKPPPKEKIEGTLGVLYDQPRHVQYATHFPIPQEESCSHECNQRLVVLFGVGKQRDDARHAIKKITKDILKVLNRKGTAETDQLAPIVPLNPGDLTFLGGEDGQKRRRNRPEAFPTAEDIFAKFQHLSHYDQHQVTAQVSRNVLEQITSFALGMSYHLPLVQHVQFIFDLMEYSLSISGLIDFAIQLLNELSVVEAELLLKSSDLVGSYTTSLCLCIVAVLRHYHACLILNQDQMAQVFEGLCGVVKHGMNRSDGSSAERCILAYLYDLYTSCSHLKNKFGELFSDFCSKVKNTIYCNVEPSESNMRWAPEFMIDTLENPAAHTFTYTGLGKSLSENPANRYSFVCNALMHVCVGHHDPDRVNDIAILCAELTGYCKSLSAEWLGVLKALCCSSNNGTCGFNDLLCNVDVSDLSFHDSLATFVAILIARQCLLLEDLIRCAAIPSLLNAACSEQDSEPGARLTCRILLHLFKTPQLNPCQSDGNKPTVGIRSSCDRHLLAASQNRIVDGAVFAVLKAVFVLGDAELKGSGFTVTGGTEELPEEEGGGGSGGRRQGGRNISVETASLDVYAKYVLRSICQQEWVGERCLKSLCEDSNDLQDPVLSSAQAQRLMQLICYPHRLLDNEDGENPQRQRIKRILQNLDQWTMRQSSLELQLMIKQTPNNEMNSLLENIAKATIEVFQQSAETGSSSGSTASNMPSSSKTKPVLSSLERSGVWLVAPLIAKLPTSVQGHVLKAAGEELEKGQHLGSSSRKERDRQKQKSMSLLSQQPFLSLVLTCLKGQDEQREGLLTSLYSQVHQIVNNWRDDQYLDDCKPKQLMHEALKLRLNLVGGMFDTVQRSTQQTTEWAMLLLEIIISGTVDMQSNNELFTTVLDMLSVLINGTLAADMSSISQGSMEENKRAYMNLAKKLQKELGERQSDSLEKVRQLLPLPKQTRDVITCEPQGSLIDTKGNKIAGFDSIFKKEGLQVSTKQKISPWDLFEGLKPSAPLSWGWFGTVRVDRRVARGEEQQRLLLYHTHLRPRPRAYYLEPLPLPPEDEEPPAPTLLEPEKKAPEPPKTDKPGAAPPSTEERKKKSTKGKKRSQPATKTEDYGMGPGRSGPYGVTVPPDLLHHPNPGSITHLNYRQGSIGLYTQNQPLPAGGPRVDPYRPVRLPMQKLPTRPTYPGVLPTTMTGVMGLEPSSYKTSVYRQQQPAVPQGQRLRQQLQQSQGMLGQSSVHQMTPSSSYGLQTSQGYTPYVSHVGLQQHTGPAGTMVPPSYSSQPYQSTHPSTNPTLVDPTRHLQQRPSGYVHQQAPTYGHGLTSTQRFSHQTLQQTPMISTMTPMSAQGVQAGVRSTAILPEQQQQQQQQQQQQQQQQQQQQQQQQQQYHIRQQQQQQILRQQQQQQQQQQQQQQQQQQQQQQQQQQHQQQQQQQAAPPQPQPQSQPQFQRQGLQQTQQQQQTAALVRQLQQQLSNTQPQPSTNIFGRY
NDUFB4, O95168, UniProt O95168, whole entry: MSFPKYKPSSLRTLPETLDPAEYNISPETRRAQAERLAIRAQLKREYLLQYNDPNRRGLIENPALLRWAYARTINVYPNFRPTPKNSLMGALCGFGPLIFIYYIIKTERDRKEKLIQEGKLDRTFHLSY
TUBB8, Q3ZCM7, UniProt Q3ZCM7, whole entry: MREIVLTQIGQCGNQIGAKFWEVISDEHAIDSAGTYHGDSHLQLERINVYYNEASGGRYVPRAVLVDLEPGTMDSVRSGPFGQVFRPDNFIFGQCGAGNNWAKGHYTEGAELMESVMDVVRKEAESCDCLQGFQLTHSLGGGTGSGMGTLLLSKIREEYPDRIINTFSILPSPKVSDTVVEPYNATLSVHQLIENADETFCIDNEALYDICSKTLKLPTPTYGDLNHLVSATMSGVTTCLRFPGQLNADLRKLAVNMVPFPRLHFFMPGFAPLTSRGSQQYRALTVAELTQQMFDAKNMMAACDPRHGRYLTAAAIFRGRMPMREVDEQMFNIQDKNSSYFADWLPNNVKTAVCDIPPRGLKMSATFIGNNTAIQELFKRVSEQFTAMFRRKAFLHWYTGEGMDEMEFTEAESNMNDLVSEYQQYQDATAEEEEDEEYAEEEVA

Common to all, as to assay: PRISMA enrichment of interactor (LFQ) in peptide spot vs all other peptide spots (log2 fold change); higher = stronger / more specific binding of the interactor to the peptide
In one test the target is ANXA7, P20073. As to the method: (§1)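 PRISMA: 15-aa overlapping tiles (offset 8 aa) of 60 microproteins, plus SOS1/GLUT1 control peptides, were spot-synthesized on cellulose membranes in triplicate. Membranes were incubated with benzonase-treated HEK293T lysate, and bound proteins were identified by LC-MS/MS with LFQ. Enrichment is the log2 fold change of each protein in one spot versus all other spots. Only interactors passing the significance cutoff are listed.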

The next test has as its target AP2A1, O95782. The method, then:
as §1

The next test deals with AP2B1, P63010. As to the method:
as §1

The target of another test is CKS2, P33552. The method, then: as §1
Another test concerns the target CSRP2, Q16527. The method, then:
as §1

A further test deals with CSTF1, Q05048. As to the method:
as §1

The next test addresses DNAJA3, Q96EY1. As to the method:
as §1

A further test addresses EWSR1, Q01844. The method, then: as §1
The target of the next test is FAM168A, Q92567. The method, then:
as §1

Another test addresses FAM98A, Q8NCA5. The method, then:
as §1

In a further test the target is FUS, P35637. The method, then: as §1
Another test deals with GABARAPL2, P60520. As to the method:
as §1

The target of a further test is GAR1, Q9NY12. The method, then: as §1
For a further test, the target named is HNRNPA1, P09651. The method, then:
as §1

In another test the target is HNRNPA2B1, P22626. The method, then:
as §1

Another test deals with HNRNPA3, P51991. The method, then:
as §1

In another test the target is NDUFB7, P17568. As to the method:
as §1

Another test deals with NUDT16L1, Q9BRJ7. The method, then: as §1
A further test addresses PDLIM7, Q9NR12. As to the method: as §1
The target of the next test is PLK1, P53350. As to the method:
as §1

The target of a further test is PPIL2, Q13356. As to the method:
as §1

For the next test, the target named is PUSL1, Q8N0Z8. As to the method:
as §1

A further test concerns the target PYCR1, P32322. As to the method: as §1
Another test concerns the target RBMXL1, Q96E39. As to the method: as §1
In a further test the target is RTCB, Q9Y3I0. As to the method:
as §1

A further test has as its target RTRAF, Q9Y224. As to the method:
as §1

For a further test, the target named is SFPQ, P23246. The method, then:
as §1

Another test addresses SLC9A3R2, Q15599. The method, then:
as §1

In the next test the target is SNX27, Q96L92. As to the method: as §1
The target in another test is SRI, P30626. As to the method:
as §1

In a further test the target is TAF15, Q92804. As to the method: as §1
The next test concerns the target ANP32E, Q9BTT0. The method, then:
as §1

The next test deals with UNC13C, Q8NB66. As to the method: as §1
In a further test the target is ANXA5, P08758. As to the method: as §1
The next test concerns the target BMS1, Q14692. The method, then:
as §1

A further test deals with CFAP20, Q9Y6A4. The method, then:
as §1

A further test addresses CIP2A, Q8TCG1. As to the method: as §1
The next test addresses DHX57, Q6P158. As to the method: as §1
In another test the target is GNPDA1, P46926. The method, then:
as §1

In another test the target is GSN, P06396. The method, then: as §1
The target of another test is HSD17B10, Q99714. The method, then:
as §1

For another test, the target named is KIFC1, Q9BW19. The method, then: as §1
A further test deals with MED12, Q93074. The method, then:
as §1

The next test has as its target MRPL18, Q9H0U6. The method, then: as §1
Another test addresses MRPL34, Q9BQ48. The method, then: as §1
The next test deals with NAE1, Q13564. As to the method: as §1
A further test deals with NDUFB4, O95168. The method, then:
as §1

For the next test, the target named is SRSF5, Q13243. The method, then:
as §1

Another test addresses TUBB8, Q3ZCM7. The method, then:
as §1

In the case of MPRRHEPVWEMTGFF [NAV2-AS2_2], the “PRISMA enrichment of interactor (log2)” value came to 3.84 in the test with ANXA7, P20073; 4.68 with AP2A1, O95782; 5.19 with AP2B1, P63010; 6.02 with CKS2, P33552; 4.92 in the test with CSRP2, Q16527; 4.23 with CSTF1, Q05048. Moreover, the “PRISMA enrichment of interactor (log2)” value with DNAJA3, Q96EY1 amounted to 4.97; in the test with EWSR1, Q01844, 7.5; with FAM168A, Q92567, 4.7; with FAM98A, Q8NCA5, 6.42; with FUS, P35637 it was 7.67; with GABARAPL2, P60520, 4.68. For the same molecule, the “PRISMA enrichment of interactor (log2)” value with GAR1, Q9NY12 turned out to be 4.86; with HNRNPA1, P09651, 4.76; with HNRNPA2B1, P22626, 5.19; in the test with HNRNPA3, P51991, 5.22; in the test with NDUFB7, P17568, 4.99; with NUDT16L1, Q9BRJ7 it was 5.03. The “PRISMA enrichment of interactor (log2)” value in the test with PDLIM7, Q9NR12 was determined as 5.08; with PLK1, P53350, 4.71; with PPIL2, Q13356, 5.31; in the test with PUSL1, Q8N0Z8 it was 4.34; in the test with PYCR1, P32322, 4.6; with RBMXL1, Q96E39, 4.43. In addition, the “PRISMA enrichment of interactor (log2)” value turned out to be 5.64 with RTCB, Q9Y3I0; 5.78 with RTRAF, Q9Y224; 5.34 with SFPQ, P23246; 5.15 with SLC9A3R2, Q15599; 5.03 with SNX27, Q96L92; 4.23 with SRI, P30626. In addition, the “PRISMA enrichment of interactor (log2)” value in the test with TAF15, Q92804 was 6.12.

Consider SSVKEAWMKKQRQSQ [TRDN-AS1_2], for which the “PRISMA enrichment of interactor (log2)” value in the test with ANP32E, Q9BTT0 stood at 3.83; with UNC13C, Q8NB66, 4.1.

ATAAPLRLGGASRRV [RNF10]: the “PRISMA enrichment of interactor (log2)” value worked out at 5.29 in the test with ANXA5, P08758; 6.85 with BMS1, Q14692; 6.04 in the test with CFAP20, Q9Y6A4; 10.2 with CIP2A, Q8TCG1; 4.82 with DHX57, Q6P158; 4.85 in the test with GNPDA1, P46926. Further, the “PRISMA enrichment of interactor (log2)” value with GSN, P06396 is 3.74; in the test with HSD17B10, Q99714, 5.81; in the test with KIFC1, Q9BW19 it was 4.05; in the test with MED12, Q93074, 5.51; with MRPL18, Q9H0U6, 4.41; with MRPL34, Q9BQ48, 6.61. In addition, the “PRISMA enrichment of interactor (log2)” value in the test with NAE1, Q13564 came out at 4.53; with NDUFB4, O95168, 5.11; with SRSF5, Q13243 it was 10; with TUBB8, Q3ZCM7, 4.88.

These data come from the supplement of paper PMC10032668.
